Reference: publication PMC11729909
Numbering of substitutions follows the chain as printed. No constants are given. Whether binding was seen depends on the method and setting. In cells and extracts the contact can be indirect. Some results given as binding are weak or reduced against the parent protein; the word gives no strength. Where a sequence is shown, tags or fusion partners need not be part of it.

Protein sequences, listed by entry. Tags and fused reporters are not part of them.
UniProt Q13535: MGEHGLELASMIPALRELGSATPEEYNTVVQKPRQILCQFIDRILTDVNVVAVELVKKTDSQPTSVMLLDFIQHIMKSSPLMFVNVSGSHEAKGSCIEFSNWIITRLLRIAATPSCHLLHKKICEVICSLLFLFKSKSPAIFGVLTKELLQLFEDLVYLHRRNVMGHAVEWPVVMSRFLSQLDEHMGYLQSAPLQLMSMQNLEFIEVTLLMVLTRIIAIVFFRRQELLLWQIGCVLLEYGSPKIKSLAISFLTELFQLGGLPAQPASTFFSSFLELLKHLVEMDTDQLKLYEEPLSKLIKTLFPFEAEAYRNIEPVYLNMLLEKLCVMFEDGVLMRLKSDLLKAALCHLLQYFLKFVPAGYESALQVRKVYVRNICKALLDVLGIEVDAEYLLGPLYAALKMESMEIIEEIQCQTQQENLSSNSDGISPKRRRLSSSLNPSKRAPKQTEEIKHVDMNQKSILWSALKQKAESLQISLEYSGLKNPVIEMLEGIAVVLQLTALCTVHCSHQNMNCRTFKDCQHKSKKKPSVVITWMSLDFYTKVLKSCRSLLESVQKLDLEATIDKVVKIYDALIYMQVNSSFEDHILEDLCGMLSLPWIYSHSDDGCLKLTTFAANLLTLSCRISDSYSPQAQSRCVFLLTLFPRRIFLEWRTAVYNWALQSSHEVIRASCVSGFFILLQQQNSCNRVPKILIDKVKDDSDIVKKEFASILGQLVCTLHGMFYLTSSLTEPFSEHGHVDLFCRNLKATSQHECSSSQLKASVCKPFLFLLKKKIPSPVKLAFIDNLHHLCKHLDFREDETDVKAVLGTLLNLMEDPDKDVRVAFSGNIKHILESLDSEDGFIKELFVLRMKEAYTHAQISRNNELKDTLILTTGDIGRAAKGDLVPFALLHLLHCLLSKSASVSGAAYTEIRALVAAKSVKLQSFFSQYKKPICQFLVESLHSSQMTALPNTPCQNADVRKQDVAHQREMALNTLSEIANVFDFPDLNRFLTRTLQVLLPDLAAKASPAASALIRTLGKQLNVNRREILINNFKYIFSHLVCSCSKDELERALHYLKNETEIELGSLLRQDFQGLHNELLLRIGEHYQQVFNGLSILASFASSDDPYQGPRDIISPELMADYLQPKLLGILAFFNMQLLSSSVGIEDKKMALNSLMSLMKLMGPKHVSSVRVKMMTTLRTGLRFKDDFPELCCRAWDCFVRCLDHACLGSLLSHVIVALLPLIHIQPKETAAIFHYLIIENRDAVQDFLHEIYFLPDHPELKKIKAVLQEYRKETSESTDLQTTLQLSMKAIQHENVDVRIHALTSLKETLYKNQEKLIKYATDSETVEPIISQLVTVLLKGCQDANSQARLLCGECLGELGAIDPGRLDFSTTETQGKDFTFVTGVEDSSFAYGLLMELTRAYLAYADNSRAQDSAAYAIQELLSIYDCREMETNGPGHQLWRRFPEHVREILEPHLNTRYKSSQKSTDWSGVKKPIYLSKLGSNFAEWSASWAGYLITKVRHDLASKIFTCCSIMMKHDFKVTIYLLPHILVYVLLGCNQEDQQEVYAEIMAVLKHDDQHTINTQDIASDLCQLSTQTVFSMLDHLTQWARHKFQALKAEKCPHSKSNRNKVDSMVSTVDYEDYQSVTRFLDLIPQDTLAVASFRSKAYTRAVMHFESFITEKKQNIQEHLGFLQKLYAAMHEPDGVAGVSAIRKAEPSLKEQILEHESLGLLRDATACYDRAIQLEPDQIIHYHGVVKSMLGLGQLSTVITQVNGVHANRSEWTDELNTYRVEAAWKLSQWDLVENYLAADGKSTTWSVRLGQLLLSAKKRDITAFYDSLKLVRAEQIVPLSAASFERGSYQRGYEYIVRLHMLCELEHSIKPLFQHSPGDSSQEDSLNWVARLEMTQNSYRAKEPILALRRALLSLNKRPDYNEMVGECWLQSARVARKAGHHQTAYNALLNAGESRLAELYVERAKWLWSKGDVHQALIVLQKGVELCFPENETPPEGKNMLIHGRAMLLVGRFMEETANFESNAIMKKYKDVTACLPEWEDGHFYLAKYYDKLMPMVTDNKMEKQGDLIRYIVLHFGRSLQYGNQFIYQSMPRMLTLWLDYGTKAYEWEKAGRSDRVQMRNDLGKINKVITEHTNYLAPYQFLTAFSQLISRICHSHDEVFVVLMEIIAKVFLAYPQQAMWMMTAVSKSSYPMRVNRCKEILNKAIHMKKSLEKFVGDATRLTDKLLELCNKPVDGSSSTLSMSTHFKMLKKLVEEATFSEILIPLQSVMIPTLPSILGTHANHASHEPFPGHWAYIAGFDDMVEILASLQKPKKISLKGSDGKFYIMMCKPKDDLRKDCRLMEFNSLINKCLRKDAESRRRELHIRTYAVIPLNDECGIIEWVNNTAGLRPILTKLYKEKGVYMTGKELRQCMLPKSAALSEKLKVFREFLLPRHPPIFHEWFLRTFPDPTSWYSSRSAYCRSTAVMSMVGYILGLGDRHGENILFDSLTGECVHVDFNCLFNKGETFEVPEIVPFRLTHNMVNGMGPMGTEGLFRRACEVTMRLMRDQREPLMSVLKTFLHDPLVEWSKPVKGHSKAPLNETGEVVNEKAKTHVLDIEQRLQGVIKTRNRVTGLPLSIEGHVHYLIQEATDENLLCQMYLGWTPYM
UniProt P27694: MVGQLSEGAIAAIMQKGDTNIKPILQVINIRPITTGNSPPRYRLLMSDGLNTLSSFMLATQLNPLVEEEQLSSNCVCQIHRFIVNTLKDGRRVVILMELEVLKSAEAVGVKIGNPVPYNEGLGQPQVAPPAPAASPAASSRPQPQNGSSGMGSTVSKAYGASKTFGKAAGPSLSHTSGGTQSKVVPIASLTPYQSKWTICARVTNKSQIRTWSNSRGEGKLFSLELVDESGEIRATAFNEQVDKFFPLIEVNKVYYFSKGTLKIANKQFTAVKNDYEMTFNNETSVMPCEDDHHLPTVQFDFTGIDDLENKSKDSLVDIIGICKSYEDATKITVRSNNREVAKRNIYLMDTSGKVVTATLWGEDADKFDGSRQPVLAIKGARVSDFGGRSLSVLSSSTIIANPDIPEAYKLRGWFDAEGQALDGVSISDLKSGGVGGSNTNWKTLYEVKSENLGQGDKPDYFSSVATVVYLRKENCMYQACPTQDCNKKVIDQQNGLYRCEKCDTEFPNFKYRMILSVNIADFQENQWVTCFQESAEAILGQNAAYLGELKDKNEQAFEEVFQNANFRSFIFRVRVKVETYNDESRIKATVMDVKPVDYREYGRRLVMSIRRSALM
UniProt P15927: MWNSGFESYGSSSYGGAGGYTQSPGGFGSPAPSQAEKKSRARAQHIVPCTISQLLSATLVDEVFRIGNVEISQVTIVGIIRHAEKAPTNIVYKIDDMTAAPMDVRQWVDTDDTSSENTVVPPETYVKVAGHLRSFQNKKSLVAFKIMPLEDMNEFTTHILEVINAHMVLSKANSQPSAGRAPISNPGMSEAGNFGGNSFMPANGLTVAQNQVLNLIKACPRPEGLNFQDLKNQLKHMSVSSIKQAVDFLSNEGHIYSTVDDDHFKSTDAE

How the values were obtained:
[1] = molecular target: T1, FLAG-tagged FOXP1 (wild type, full length) (human) (UniProt Q9H334); experiment: co-IP; H1975 cells transfected with FLAG-tagged FOXP1, preincubated with Thiamet-G or not, immunoprecipitation and immunoblot
T1 sequence: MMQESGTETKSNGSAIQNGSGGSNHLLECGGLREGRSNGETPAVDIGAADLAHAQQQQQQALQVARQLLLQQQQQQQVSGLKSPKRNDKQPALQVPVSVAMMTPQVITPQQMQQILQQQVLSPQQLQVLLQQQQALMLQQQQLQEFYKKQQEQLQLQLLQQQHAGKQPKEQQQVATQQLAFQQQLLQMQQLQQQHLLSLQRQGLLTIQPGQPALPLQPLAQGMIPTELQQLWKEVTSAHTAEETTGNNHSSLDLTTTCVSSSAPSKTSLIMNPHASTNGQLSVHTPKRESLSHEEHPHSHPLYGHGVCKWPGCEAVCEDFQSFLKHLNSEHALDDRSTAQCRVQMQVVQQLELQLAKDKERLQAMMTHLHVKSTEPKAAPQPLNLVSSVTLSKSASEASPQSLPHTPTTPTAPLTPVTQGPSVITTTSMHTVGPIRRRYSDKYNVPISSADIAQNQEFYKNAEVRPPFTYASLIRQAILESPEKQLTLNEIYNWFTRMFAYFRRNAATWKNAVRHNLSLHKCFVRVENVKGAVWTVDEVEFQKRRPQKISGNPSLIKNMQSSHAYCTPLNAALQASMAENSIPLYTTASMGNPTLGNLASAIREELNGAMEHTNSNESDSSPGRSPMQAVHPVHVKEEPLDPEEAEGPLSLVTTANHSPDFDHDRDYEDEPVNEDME

[2] = molecular target: T1, FLAG-tagged FOXP1 (wild type, full length) (human); experiment: co-IP; HEK293T transfected with FLAG-FOXP1, untreated or 2 mM HU 1 h, chromatin fractionation; soluble and chromatin fractions (diluted ten times with NETN) precipitated with Anti-FLAG Affinity Gel
[3] = molecular target: T2, GST-tagged FOXP1 (wild type, full length) (human) (UniProt Q9H334); experiment: pull-down; GST pull-down: purified GST-tagged FOXP1 (unmodified, O-GlcNAcylated, or phosphorylated by CHK1 in vitro) incubated with HEK293T cell lysate, glutathione beads, immunoblot; only the target purified
T2 sequence: T1 sequence

[4] = molecular target: T3, GST-tagged FOXP1 modified with O-GlcNAc (human) (UniProt Q9H334); experiment: as above
T3 sequence (chain, O-GlcNAc (sites not stated)): T1 sequence

[5] = molecular target: T4, GST-tagged FOXP1 phosphorylated by CHK1 (human) (UniProt Q9H334); experiment: as above
T4 sequence (chain, phosphoserine at 396): T1 sequence

[6] = molecular target: T1, FLAG-tagged FOXP1 (wild type, full length) (human); experiment: co-IP; HEK293T transfected with the indicated plasmids, lysed in NETN buffer, Anti-FLAG Affinity Gel 4 h at 4 °C, immunoblot; in some panels 2 mM HU, Thiamet-G, OGT siRNA, ATR inhibitors (VE-822, NU6027) or CHK1 inhibitors (Rabusertib, UCN-01)
[7] = molecular target: T5, FLAG-tagged FOXP1 R465G (human) (UniProt Q9H334); experiment: as above
T5 sequence: T1 sequence with R465G

[8] = molecular target: T6, FLAG-tagged FOXP1 R465T (human) (UniProt Q9H334); experiment: as above
T6 sequence: T1 sequence with R465T

[9] = molecular target: T7, FLAG-tagged FOXP1 R514C (human) (UniProt Q9H334); experiment: as above
T7 sequence: T1 sequence with R514C

[10] = molecular target: T8, FLAG-tagged FOXP1 R514H (human) (UniProt Q9H334); experiment: as above
T8 sequence: T1 sequence with R514H

[11] = molecular target: T9, FLAG-tagged FOXP1 S396D (human) (UniProt Q9H334); experiment: as above
T9 sequence: T1 sequence with S396D

Measured: binding

ATR (endogenous) (from UniProt Q13535 1-2644)
binds: [1] | [2] | [3] | [4] | [5] | [6] | [7] | [8] | [9] | [10] | [11]

RPA70 (endogenous) (from UniProt P27694 1-616)
binds: [6]

RPA32 (endogenous) (from UniProt P15927 1-270)
binds: [6]
